Measured values taken from the supplement of paper PMC4604168 (melanoma cell lines).
The other results are listed elsewhere or left out. Repeats are few or missing, and single values can be far off.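 Imaging used 1,536-well plates; nuclei positive for cleaved PARP by antibody were divided by total DNA-stained nuclei to yield the apoptosis fraction. Doses for screening kept most cells viable, and cell lines differ markedly in resting and induced cleaved-PARP levels.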

Assays:
Assay in all cases: cleaved PARP positive nuclei fraction relative to DMSO control; melanoma cells; higher = more apoptosis
Settings in all cases: library dose: low library concentration; 72 h
MZ2-MEL = test system: MZ2-MEL
MeWo = test system: MeWo
RPMI7951 = test system: RPMI7951
RVH-421 = test system: RVH-421
SkMel28 = test system: SkMel28
SkMel30 = test system: SkMel30
SkMel5 = test system: SkMel5
UACC257 = test system: UACC257
UACC62 = test system: UACC62
WM115 = test system: WM115
WM1716 = test system: WM1716
WM1745 = test system: WM1745
WM3526 = test system: WM3526
WM3619 = test system: WM3619
WM451Lu = test system: WM451Lu

SMILES | cleaved PARP positive nuclei fraction (MZ2-MEL) [%] | cleaved PARP positive nuclei fraction (MeWo) [%] | cleaved PARP positive nuclei fraction (RPMI7951) [%] | cleaved PARP positive nuclei fraction (RVH-421) [%] | cleaved PARP positive nuclei fraction (SkMel28) [%] | cleaved PARP positive nuclei fraction (SkMel30) [%] | cleaved PARP positive nuclei fraction (SkMel5) [%] | cleaved PARP positive nuclei fraction (UACC257) [%] | cleaved PARP positive nuclei fraction (UACC62) [%] | cleaved PARP positive nuclei fraction (WM115) [%] | cleaved PARP positive nuclei fraction (WM1716) [%] | cleaved PARP positive nuclei fraction (WM1745) [%] | cleaved PARP positive nuclei fraction (WM3526) [%] | cleaved PARP positive nuclei fraction (WM3619) [%] | cleaved PARP positive nuclei fraction (WM451Lu) [%]
Cc1ccc(NC(=O)c2cccc(N(C)C)c2)cc1NC(=O)c1ccc(O)cc1 + CCCCCCCCCCCC1=C(O)C(=O)C=C(O)C1=O [Embelin] (first compound 2 µM, partner dose 1.2 µM) | 148 | 27.2 | 88.3 | 15.7 | 80.6 | 198 | 82 | 69.5 | 38.9 | 53 | 65 | 114 | 46.1 | 79.7 | 119
C=CCn1c(=O)c2cnc(Nc3ccc(N4CCN(C)CC4)cc3)nc2n1-c1cccc(C(C)(C)O)n1 + CCc1ccc(CCOc2ccc(CC3SC(=O)NC3=O)cc2)nc1 [pioglitazone] (first compound 0.02 µM, partner dose 2 µM) | 71.9 | 140 | 89.7 | 66.1 | 51.7 | 122 | 224 | 65.2 | 88.1 | 91.5 | 56.9 | 172 | 146 | 122 | 60.7
CC(C)(C)c1cnc(CSc2cnc(NC(=O)C3CCNCC3)s2)o1 + CCc1ccc(CCOc2ccc(CC3SC(=O)NC3=O)cc2)nc1 [pioglitazone] (first compound 0.01 µM, partner dose 2 µM) | 28.6 | 99.3 | 46.2 | 72.9 | 155 | 29.1 | 28.9 | 139 | 75.8 | 47.9 | 139 | 106 | 74.2 | 69.8 | 63.9
C#Cc1cccc(Nc2ncnc3cc(OCCOC)c(OCCOC)cc23)c1 [erlotinib] + CCCCCCCCCCCC1=C(O)C(=O)C=C(O)C1=O [Embelin] (first compound 0.8 µM, partner dose 1.2 µM) | 68.2 | 127 | 88.4 | 19.1 | 123 | 5.4 | 84.2 | 66.4 | 34.7 | 187 | 144 | 126 | 67.8 | 83.8 | 118
COCC[n+]1c2c(n(Cc3cnccn3)c1C)C(=O)c1ccccc1C2=O + CC(C)CCN1c2nc(Nc3cc(F)c(O)c(F)c3)ncc2N(C)C(=O)C1C [BID1870] (first compound 0.0004 µM, partner dose 0.2 µM) | 333 | 42.3 | 84.7 | 57.6 | 159 | 119 | 219 | 205 | 130 | 64.6 | 133 | 121 | 75.1 | 164 | 95.1
Cn1cncc1[C@@](N)(c1ccc(Cl)cc1)c1ccc2c(c1)c(-c1cccc(Cl)c1)cc(=O)n2C [tipifarnib] + c1cc(-c2cnn3cc(-c4ccc(OCCN5CCCCC5)cc4)cnc23)ccn1 [Dorsomorphin] (first compound 0.01 µM, partner dose 0.4 µM) | 221 | 80.4 | 50.1 | 103 | 124 | 159 | 66.5 | 180 | 57.6 | 155 | 66.8 | 108 | 112 | 91.9 | 284
CC1(C)NC(=O)N(c2ccc([N+](=O)[O-])c(C(F)(F)F)c2)C1=O [nilutamide] + COc1cc2ncnc(Nc3ccc(Oc4ccccc4)cc3)c2cc1OC [SrcI1] (first compound 1 µM, partner dose 2 µM) | 30.8 | 44.3 | 220 | 62.7 | 170 | 326 | 49.5 | 96.8 | 89.9 | 134 | 61.9 | 207 | 72.9 | 75.8 | 47.8
C#Cc1cccc(Nc2ncnc3cc(OCCOC)c(OCCOC)cc23)c1 [erlotinib] + CC(C)CCN1c2nc(Nc3cc(F)c(O)c(F)c3)ncc2N(C)C(=O)C1C [BID1870] (first compound 0.8 µM, partner dose 0.2 µM) | 179 | 116 | 80.7 | 66.6 | 142 | 38.4 | 58.8 | 116 | 428 | 113 | 115 | 113 | 154 | 79 | 63
O=C(Nc1cccc(Cl)c1)Nc1ncc(CCNc2ncnc3ccsc23)s1 + O=C(O)C(=O)Nc1sc2c(c1C(=O)O)CCNC2 [TCS401] (first compound 0.0008 µM, partner dose 1.66667 µM) | 187 | 73.9 | 131 | 128 | 150 | 54.8 | 60.2 | 76.7 | 43.6 | 394 | 103 | 113 | 74.9 | 85.5 | 92.4
OCCn1cc(-c2cnc3nnn(Cc4ccc5ncccc5c4)c3n2)cn1 + COc1ccc(COc2ccc(Cc3cnc(N)nc3N)cc2OC)cc1 [GW2580] (first compound 1 µM, partner dose 1 µM) | 95.6 | 70.4 | 79.4 | 74.3 | 50 | 36.3 | 118 | 98 | 40.7 | 136 | 133 | 94.8 | 87.3 | 116 | 120
C[C@]1(c2nc3c(C(N)=O)cccc3[nH]2)CCCN1 [Veliparib] + O=S(=O)(c1ccccc1)N(CC(F)(F)F)c1ccc(C(O)(C(F)(F)F)C(F)(F)F)cc1 [T0901317] (first compound 1.4 µM, partner dose 1.4 µM) | 62.5 | 115 | 42.3 | 112 | 119 | 27.8 | 68.9 | 196 | 90.7 | 219 | 117 | 134 | 79.5 | 99.2 | 273
C#Cc1cccc(Nc2ncnc3cc(OCCOC)c(OCCOC)cc23)c1 [erlotinib] + COc1ccc2c(c1)CCC1C2CCC2(C)C(NCCCCCCN3C(=O)C=CC3=O)CCC12 [U73122] (first compound 0.8 µM, partner dose 0.4 µM) | 41.1 | 82.6 | 89.2 | 140 | 136 | 16.3 | 26.7 | 108 | 95 | 45.8 | 131 | 116 | 66.7 | 88.8 | 230
COc1cc(Nc2ncc(F)c(Nc3ccc4c(n3)NC(=O)C(C)(C)O4)n2)cc(OC)c1OC [Tamatinib] + COc1cc2ncnc(Nc3ccc(Oc4ccccc4)cc3)c2cc1OC [SrcI1] (first compound 0.4 µM, partner dose 2 µM) | 169 | 149 | 93.4 | 80.5 | 233 | 49.1 | 191 | 30.2 | 104 | 160 | 77.8 | 163 | 243 | 88.3 | 30.9
Cn1c(Nc2ccc(C(F)(F)F)cc2)nc2cc(Oc3ccnc(-c4ncc(C(F)(F)F)[nH]4)c3)ccc21 + O=S(=O)(c1ccccc1)N(CC(F)(F)F)c1ccc(C(O)(C(F)(F)F)C(F)(F)F)cc1 [T0901317] (first compound 0.08 µM, partner dose 1.4 µM) | 130 | 168 | 135 | 71.1 | 184 | 41.3 | 77.3 | 920 | 149 | 370 | 92 | 185 | 131 | 127 | 85
CC1(C)NC(=O)N(c2ccc([N+](=O)[O-])c(C(F)(F)F)c2)C1=O [nilutamide] + COc1cc(N2CCC(N3CCN(C)CC3)CC2)ccc1Nc1ncc(Cl)c(Nc2ccccc2S(=O)(=O)C(C)C)n1 [NVP-TAE684] (first compound 1 µM, partner dose 0.08 µM) | 28 | 57.1 | 79 | 70.4 | 113 | 10.5 | 45.7 | 252 | 244 | 110 | 54.1 | 112 | 103 | 84.3 | 33.5
C=CCn1c(=O)c2cnc(Nc3ccc(N4CCN(C)CC4)cc3)nc2n1-c1cccc(C(C)(C)O)n1 + O=C(Nc1ccccc1)c1cc([N+](=O)[O-])ccc1Cl [GW9662] (first compound 0.02 µM, partner dose 2 µM) | 90.3 | 110 | 38.5 | 48.7 | 140 | 20.8 | 62.9 | 137 | 209 | 137 | 87.6 | 118 | 63.4 | 290 | 34.6
Cn1cncc1[C@@](N)(c1ccc(Cl)cc1)c1ccc2c(c1)c(-c1cccc(Cl)c1)cc(=O)n2C [tipifarnib] + COc1ccc(-c2ccc3c(N4CCOCC4)nc(N4C[C@@H](C)O[C@@H](C)C4)nc3n2)cc1CO [KU0063794] (first compound 0.01 µM, partner dose 0.02 µM) | 68.7 | 59.4 | 91.9 | 147 | 72.3 | 122 | 68.7 | 455 | 150 | 133 | 57 | 109 | 75.4 | 106 | 69.8
C[C@@H]1CCN(C(=O)CC#N)C[C@@H]1N(C)c1ncnc2[nH]ccc12 + COc1ccc(COc2ccc(Cc3cnc(N)nc3N)cc2OC)cc1 [GW2580] (first compound 1 µM, partner dose 1 µM) | 196 | 316 | 97.9 | 57.7 | 80.1 | 307 | 57.3 | 92.8 | 89.4 | 74.9 | 92.2 | 110 | 113 | 84.1 | 31.9
Cn1nnc2c(C(N)=O)ncn2c1=O [temozolomide] + COc1ccc(-c2ccc3c(N4CCOCC4)nc(N4C[C@@H](C)O[C@@H](C)C4)nc3n2)cc1CO [KU0063794] (first compound 2 µM, partner dose 0.02 µM) | 59.8 | 66.2 | 70.9 | 251 | 94.2 | 110 | 84.4 | 188 | 142 | 133 | 106 | 111 | 67.4 | 85.8 | 198
Cn1cncc1[C@@](N)(c1ccc(Cl)cc1)c1ccc2c(c1)c(-c1cccc(Cl)c1)cc(=O)n2C [tipifarnib] + CCCCCCCCCCCC1=C(O)C(=O)C=C(O)C1=O [Embelin] (first compound 0.01 µM, partner dose 1.2 µM) | 50.2 | 47.5 | 21.4 | 124 | 86 | 49.9 | 106 | 124 | 96 | 166 | 15.6 | 95.5 | 80.2 | 74.7 | 124

Retrieved one by one from the entries so far (2):
SMILES | cleaved PARP positive nuclei fraction (MZ2-MEL) [%] | cleaved PARP positive nuclei fraction (MeWo) [%] | cleaved PARP positive nuclei fraction (RPMI7951) [%] | cleaved PARP positive nuclei fraction (RVH-421) [%] | cleaved PARP positive nuclei fraction (SkMel28) [%] | cleaved PARP positive nuclei fraction (SkMel30) [%] | cleaved PARP positive nuclei fraction (SkMel5) [%] | cleaved PARP positive nuclei fraction (UACC257) [%] | cleaved PARP positive nuclei fraction (UACC62) [%] | cleaved PARP positive nuclei fraction (WM115) [%] | cleaved PARP positive nuclei fraction (WM1716) [%] | cleaved PARP positive nuclei fraction (WM1745) [%] | cleaved PARP positive nuclei fraction (WM3526) [%] | cleaved PARP positive nuclei fraction (WM3619) [%] | cleaved PARP positive nuclei fraction (WM451Lu) [%]
C=CCn1c(=O)c2cnc(Nc3ccc(N4CCN(C)CC4)cc3)nc2n1-c1cccc(C(C)(C)O)n1 + O=C(Nc1ccccc1)c1cc([N+](=O)[O-])ccc1Cl [GW9662] (first compound 0.02 µM, partner dose 2 µM) | 90.3 | 110 | 38.5 | 48.7 | 140 | 20.8 | 62.9 | 137 | 209 | 137 | 87.6 | 118 | 63.4 | 290 | 34.6
CC1(C)NC(=O)N(c2ccc([N+](=O)[O-])c(C(F)(F)F)c2)C1=O [nilutamide] + COc1cc2ncnc(Nc3ccc(Oc4ccccc4)cc3)c2cc1OC [SrcI1] (first compound 1 µM, partner dose 2 µM) | 30.8 | 44.3 | 220 | 62.7 | 170 | 326 | 49.5 | 96.8 | 89.9 | 134 | 61.9 | 207 | 72.9 | 75.8 | 47.8
